PubChem BioAssay AID652272, Drosophila RNAi Screening Center – 2013
Purpose: 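Finding fly genes that regulate Hedgehog signal transduction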 (primary screen). System: Drosophila clone 8 (Cl8) cells. Reagent: long dsRNA against Drosophila genes. Read-out: 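Firefly light from a Hedgehog-responsive ptc promoter reporter and Renilla reference light, both read on a plate reader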. Scale: firefly Hh reporter signal: higher = more ptc reporter light; Renilla reference signal: higher = more Renilla control light. Active means: 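Hit when the z-score averaged over two replicates is under -2 or over +3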. Meaning of the calls: active = hit: reporter lowered or raised; inactive = not a hit.
The screen tested about 21,000 reagents; below is a random part of those that have a named target and a result. In the full data, 503 (2.4%) are marked active. 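Raw plate light values, not normalised; calls rest on replicate z-scores that were not deposited; hits include reporter decreases as well as increases.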 Names joined by + are all predicted targets of the reagent. Reagent sequences are not shown. Not given: the amount of reagent, the time to read-out.

Knock-down of CG5447 (GeneID 43192) [DRSC15801] came out at: firefly Hh reporter signal, replicate 1 = 7.37e5; firefly Hh reporter signal, replicate 2 = 1.28e5; Renilla reference signal, replicate 1 = 35315; Renilla reference signal, replicate 2 = 466; inactive.
With knock-down of Pdk1 (GeneID 38017) [DRSC08682], the record shows firefly Hh reporter signal, replicate 1 = 71707; firefly Hh reporter signal, replicate 2 = 29250; Renilla reference signal, replicate 1 = 2151; Renilla reference signal, replicate 2 = 1875; inactive.
With knock-down of Pfas (GeneID 33847) [DRSC03480] the results were firefly Hh reporter signal, replicate 1 = 1.13e5; firefly Hh reporter signal, replicate 2 = 76108; Renilla reference signal, replicate 1 = 4437; Renilla reference signal, replicate 2 = 2790; inactive.
LManVI (GeneID 34206) [DRSC03224] gave firefly Hh reporter signal, replicate 1 = 73960; firefly Hh reporter signal, replicate 2 = 32790; Renilla reference signal, replicate 1 = 1979; Renilla reference signal, replicate 2 = 3243; inactive.
Sec61alpha (GeneID 33905) [DRSC03256] gave firefly Hh reporter signal, replicate 1 = 89128; firefly Hh reporter signal, replicate 2 = 92512; Renilla reference signal, replicate 1 = 4032; Renilla reference signal, replicate 2 = 3307; inactive.
For CG31693 (GeneID 318887) [DRSC03674] the deposit lists firefly Hh reporter signal, replicate 1 = 1.03e5; firefly Hh reporter signal, replicate 2 = 1.57e5; Renilla reference signal, replicate 1 = 3268; Renilla reference signal, replicate 2 = 7008; inactive.
Depletion of net (GeneID 45339) [DRSC00309] came out at: firefly Hh reporter signal, replicate 1 = 1.66e5; firefly Hh reporter signal, replicate 2 = 1.10e5; Renilla reference signal, replicate 1 = 3797; Renilla reference signal, replicate 2 = 2919; inactive.
CG5793 + Obp93a [DRSC15220] gave firefly Hh reporter signal, replicate 1 = 5.34e5; firefly Hh reporter signal, replicate 2 = 1.05e5; Renilla reference signal, replicate 1 = 36240; Renilla reference signal, replicate 2 = 503; inactive.
Against Srp72 (GeneID 42439) [DRSC15800], the entry reads firefly Hh reporter signal, replicate 1 = 1.14e5; firefly Hh reporter signal, replicate 2 = 64267; Renilla reference signal, replicate 1 = 5212; Renilla reference signal, replicate 2 = 2660; inactive.
After knock-down of CG14492 (GeneID 37045) [DRSC06463], the screen gave firefly Hh reporter signal, replicate 1 = 52992; firefly Hh reporter signal, replicate 2 = 54547; Renilla reference signal, replicate 1 = 992; Renilla reference signal, replicate 2 = 4057; inactive.
Against CG34006 (retired record) (GeneID 3885652) [DRSC13817], the values are firefly Hh reporter signal, replicate 1 = 56235; firefly Hh reporter signal, replicate 2 = 2.42e5; Renilla reference signal, replicate 1 = 13158; Renilla reference signal, replicate 2 = 5813; inactive.
CG14805 (GeneID 31146) [DRSC18554] gave firefly Hh reporter signal, replicate 1 = 96912; firefly Hh reporter signal, replicate 2 = 2.07e5; Renilla reference signal, replicate 1 = 4085; Renilla reference signal, replicate 2 = 8065; inactive.
Jhbp3 (GeneID 40611) [DRSC12247] gave firefly Hh reporter signal, replicate 1 = 78483; firefly Hh reporter signal, replicate 2 = 97507; Renilla reference signal, replicate 1 = 3221; Renilla reference signal, replicate 2 = 1657; inactive.
CG15130 (GeneID 35312) [DRSC02430] showed firefly Hh reporter signal, replicate 1 = 82197; firefly Hh reporter signal, replicate 2 = 27092; Renilla reference signal, replicate 1 = 2342; Renilla reference signal, replicate 2 = 2432; inactive.

An excerpt from above, showing only “Renilla reference signal, replicate 2”.
Sec61alpha (GeneID 33905) [DRSC03256]	3307
CG31693 (GeneID 318887) [DRSC03674]	7008
